# Source: PubChem BioAssay (NCATS)
# Protein sequences, listed by entry. Tags and fused reporters are not part of them. Lines headed by an entry give the natural chain unless they say otherwise; changes in a name come on top.
# UniProt Q99816: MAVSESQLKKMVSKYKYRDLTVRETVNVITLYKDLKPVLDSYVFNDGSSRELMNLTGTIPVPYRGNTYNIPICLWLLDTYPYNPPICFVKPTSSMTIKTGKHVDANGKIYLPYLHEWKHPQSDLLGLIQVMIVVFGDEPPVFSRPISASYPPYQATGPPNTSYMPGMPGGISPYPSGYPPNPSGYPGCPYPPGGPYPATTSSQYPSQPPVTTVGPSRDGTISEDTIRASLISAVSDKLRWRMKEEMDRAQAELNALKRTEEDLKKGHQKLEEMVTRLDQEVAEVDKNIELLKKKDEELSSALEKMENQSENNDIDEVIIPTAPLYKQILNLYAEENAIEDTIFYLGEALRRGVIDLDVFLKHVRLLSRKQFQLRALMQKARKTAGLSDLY
# Inconclusive means that the source gave no clear call. Such entries were picked first, then a sample of the others. For some assays here: A potency beside an inconclusive call is a rough fit, not a confirmed value. Calls of active or inactive are those of the source. Unless noted, calls follow the shape of the dose curve; as a rule, active = well fitted curve in the direction sought with a large enough effect; inconclusive = small, poorly fitted or top-dose-only effect, or another doubt; inactive = no such curve, though single readings can be large; an effect the other way counts as inactive or inconclusive.
# Tests used:
# [1] = Cytotoxicity counterscreen for NFkB agonists and antagonists (AID 624476);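 also: potency is read from the fitted curve at half-maximal effect; cells exposed to compound for 48 hours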
# [2] = Cell Proliferation Assay against the TMD8 Cell Line (Caspase readout at 16 hrs) (AID 651712);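 also: 0% = DMSO and 100% = 9.2 µM bortezomib caspase activation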
# Method in brief: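 Caspase-Glo luminescence measured apoptosis after a 16 h, 37 C compound exposure of TMD8 cells (500 cells/well, 5% FBS RPMI). DMSO set 0% and bortezomib at 9.2 uM final set 100% activity.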
# [3] = Cell Proliferation Assay against the TMD8 Cell Line (Caspase readout at 8 hrs) (AID 651713); details: TMD8 lymphoma cells, caspase activation luminescence; caspase activation: at 46.1 µM (top of the series); also: potency is read from the fitted curve at half-maximal effect
# Method in brief: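 Apoptosis read-out: Caspase-Glo luminescence after 8 h compound exposure of TMD8 lymphoma cells at 37C, 5% CO2. Signals were normalized as percent activity between DMSO and bortezomib (9.2 uM final) controls.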
# [4] = target: Tumor susceptibility gene 101 protein (Homo sapiens) (UniProt Q99816); assay: qHTS Assay for Iinhibitors of HIV-1 Budding by Blocking the Interaction of PTAP/TSG101: Hit Validation (AID 651600); details: PTAP peptide/TSG101 UEV interaction, biochemical assay; also: potency is read from the fitted curve at half-maximal effect; nearly all actives have a fitted effect of over 70% in size
# Method in brief: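 Tsg101 binding domain 10 uM + FITC-PTAP peptide 50 nM (final), 10 mM HEPES pH 7.5/0.15 M NaCl/0.01% Tween 20/3 mM EDTA/0.1 mM TCEP; 20 min RT; FP read, FITC filters.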
# [5] = qHTS assay for small molecule agonists of the antioxidant response element (ARE) signaling pathway (AID 651741; active = well fitted activation curve with a large enough effect in the signal ratio; inconclusive = small, poorly fitted or top-dose-only effect, or effect the other way, or a change in a side signal; the % refers to the signal ratio; also: % of control where 0% means no effect); details: HepG2 ARE-bla reporter, beta-lactamase FRET ratio, 16 h; at 96 µM (top of the series)
# Method in brief: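 Beta-lactamase reporter under ARE control in HepG2 cells, 2,000 per well, was induced by 16 h compound treatment at 37 C. Read-out was fluorescence from LiveBLAzer B/G FRET substrate after 2 h at room temperature.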
smiles,measurement,setting,value
NC(CO)(CO)CCc1ccc(Sc2cccc(OCc3ccccc3)c2)cc1Cl,Potency,[1],"inconclusive: 33.2 µM [inhibitor, single point]"
same,Potency,[2],inactive
same,Potency,[3],"inconclusive: 37.2 µM [activator, single point]"
O=C(O)c1cc(O)c2c(c1)C(=O)c1cccc(O)c1C2=O,Potency,[4],"inconclusive: 36.6 µM [inhibitor, single point]"
CC(=O)Oc1ccccc1C(=O)O,activation,[5],inactive: 2.54%
